Here are results for three sequences from article PMC8648109.

Chains of the proteins cited; added tags and fusions are not shown. Where a name states a change or a piece, a line headed by the entry shows the natural chain unless it says otherwise. A line that says so, or that is headed by a name, gives the form on record, which may keep a tag or linker.
UniProt Q9WTL8: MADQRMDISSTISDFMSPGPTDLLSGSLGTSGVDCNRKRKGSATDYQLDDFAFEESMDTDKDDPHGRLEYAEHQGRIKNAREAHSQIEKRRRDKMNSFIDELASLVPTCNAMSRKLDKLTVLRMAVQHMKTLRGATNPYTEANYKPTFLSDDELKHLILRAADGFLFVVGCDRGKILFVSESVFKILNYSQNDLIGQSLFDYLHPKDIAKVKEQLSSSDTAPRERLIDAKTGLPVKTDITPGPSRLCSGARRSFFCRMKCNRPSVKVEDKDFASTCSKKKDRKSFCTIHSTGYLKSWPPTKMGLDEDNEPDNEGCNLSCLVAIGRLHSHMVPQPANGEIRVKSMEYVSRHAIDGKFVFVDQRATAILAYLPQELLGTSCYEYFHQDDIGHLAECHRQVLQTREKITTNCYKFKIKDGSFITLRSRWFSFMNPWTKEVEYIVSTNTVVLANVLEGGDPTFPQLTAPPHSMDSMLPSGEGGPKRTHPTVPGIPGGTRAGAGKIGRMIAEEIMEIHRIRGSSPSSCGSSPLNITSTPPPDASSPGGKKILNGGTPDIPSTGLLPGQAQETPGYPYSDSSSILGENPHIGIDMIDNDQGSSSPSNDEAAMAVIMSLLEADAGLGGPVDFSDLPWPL
BMAL1 (endogenous, mouse fibroblasts) + CLOCK (endogenous, mouse fibroblasts), one chain, as listed by the source: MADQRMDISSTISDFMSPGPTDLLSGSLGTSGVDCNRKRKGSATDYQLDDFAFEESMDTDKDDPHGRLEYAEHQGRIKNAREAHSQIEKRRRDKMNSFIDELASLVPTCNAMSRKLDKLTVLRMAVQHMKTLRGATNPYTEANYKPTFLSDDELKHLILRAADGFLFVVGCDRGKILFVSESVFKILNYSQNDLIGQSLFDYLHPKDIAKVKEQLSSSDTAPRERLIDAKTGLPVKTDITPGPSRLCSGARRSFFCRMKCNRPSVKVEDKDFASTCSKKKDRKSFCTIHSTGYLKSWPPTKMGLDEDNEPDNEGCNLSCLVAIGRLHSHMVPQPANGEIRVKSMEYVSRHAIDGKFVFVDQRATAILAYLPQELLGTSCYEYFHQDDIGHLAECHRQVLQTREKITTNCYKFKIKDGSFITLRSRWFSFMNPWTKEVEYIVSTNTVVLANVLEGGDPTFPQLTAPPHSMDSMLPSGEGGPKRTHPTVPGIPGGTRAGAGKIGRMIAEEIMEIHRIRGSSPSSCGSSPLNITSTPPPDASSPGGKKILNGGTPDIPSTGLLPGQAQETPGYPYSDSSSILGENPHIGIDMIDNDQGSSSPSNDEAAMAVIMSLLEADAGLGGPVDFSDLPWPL

Data set [1] addresses BMAL1 (endogenous, mouse fibroblasts) (mouse) (UniProt Q9WTL8). Description: EMSA. The conditions noted are these: Clock-deficient fibroblast extract; 20 ug total cell extract, 32P-labeled duplex, room temperature 20 min; antibody 1 ug in 10 ul EMSA reaction buffer on ice 30 min for supershift; protein in an extract; label: 32P (probe), unlabeled as competitor. Background: In EMSA bound probe runs differently from free probe, usually more slowly.

The target in data set [2] is T1, CLOCK (endogenous, mouse fibroblasts) (mouse) (UniProt O08785).
T1 sequence (looked up, limits assumed): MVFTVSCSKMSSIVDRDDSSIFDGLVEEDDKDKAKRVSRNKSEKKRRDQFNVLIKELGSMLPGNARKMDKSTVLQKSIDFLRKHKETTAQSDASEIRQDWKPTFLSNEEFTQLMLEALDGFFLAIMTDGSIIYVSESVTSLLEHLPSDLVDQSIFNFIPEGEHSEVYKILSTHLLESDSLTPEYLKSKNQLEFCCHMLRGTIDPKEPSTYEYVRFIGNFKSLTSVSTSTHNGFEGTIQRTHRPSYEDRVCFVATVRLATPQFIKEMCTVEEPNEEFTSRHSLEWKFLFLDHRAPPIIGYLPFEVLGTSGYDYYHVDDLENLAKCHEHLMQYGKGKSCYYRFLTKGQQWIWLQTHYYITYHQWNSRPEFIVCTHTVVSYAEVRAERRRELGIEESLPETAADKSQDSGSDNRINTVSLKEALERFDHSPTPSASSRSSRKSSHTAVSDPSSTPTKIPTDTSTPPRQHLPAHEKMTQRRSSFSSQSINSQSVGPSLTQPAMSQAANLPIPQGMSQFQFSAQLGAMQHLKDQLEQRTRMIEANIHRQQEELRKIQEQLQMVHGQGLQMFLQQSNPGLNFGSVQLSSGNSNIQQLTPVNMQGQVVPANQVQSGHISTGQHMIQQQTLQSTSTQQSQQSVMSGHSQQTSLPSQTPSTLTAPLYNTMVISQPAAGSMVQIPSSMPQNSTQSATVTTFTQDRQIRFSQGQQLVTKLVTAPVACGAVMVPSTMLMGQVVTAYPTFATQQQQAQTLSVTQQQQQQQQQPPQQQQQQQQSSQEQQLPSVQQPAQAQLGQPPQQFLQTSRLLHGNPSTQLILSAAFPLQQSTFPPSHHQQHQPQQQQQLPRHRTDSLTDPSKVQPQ
Description: EMSA. Conditions: Bmal1-deficient fibroblast extract; 20 ug total cell extract, 32P-labeled duplex, room temperature 20 min; antibody 1 ug in 10 ul EMSA reaction buffer on ice 30 min for supershift; protein in an extract; label: 32P (probe), unlabeled as competitor.

Data set [3] has as its system BMAL1 (endogenous, mouse fibroblasts) + CLOCK (endogenous, mouse fibroblasts). The experiment in a line: competition with a labelled probe. The conditions noted are these: 20 ug total cell extract, 32P-labeled duplex, room temperature 20 min, antibody 1 ug in 10 ul EMSA reaction buffer on ice 30 min for supershift, protein in an extract.

For at least one entry, the source does not settle the construct or the ends of the probe. Where cells or extracts were used, other partners may take part. Negatives hold for the conditions tested. For some assays here: Tags and fusion partners may be left off the protein sequences shown.

For the sequence “CGCGCAAAGCCATGTGCTTCCCCCT (double strand) [WT1 E-box probe]”, the binding result is “no binding” in data set [1]; “no binding” in data set [2]; “binds” in data set [3] (100-fold excess cold WT1, label: 32P (probe), unlabeled as competitor).

For the sequence “GGGACACGTGACCC (double strand) [WT2 E-box]”, the binding result in data set [3] (100-fold excess cold WT2) is “binds”.

As to “GGGACAGCTGACCC (double strand) [E-box mutant]”, the binding result in data set [3] (100-fold excess cold mutant, label: unlabeled competitor) was “no binding”.
